Sequences of proteins named here, by UniProt entry; tags and fusion partners are left off.
UniProt P15056, whole entry: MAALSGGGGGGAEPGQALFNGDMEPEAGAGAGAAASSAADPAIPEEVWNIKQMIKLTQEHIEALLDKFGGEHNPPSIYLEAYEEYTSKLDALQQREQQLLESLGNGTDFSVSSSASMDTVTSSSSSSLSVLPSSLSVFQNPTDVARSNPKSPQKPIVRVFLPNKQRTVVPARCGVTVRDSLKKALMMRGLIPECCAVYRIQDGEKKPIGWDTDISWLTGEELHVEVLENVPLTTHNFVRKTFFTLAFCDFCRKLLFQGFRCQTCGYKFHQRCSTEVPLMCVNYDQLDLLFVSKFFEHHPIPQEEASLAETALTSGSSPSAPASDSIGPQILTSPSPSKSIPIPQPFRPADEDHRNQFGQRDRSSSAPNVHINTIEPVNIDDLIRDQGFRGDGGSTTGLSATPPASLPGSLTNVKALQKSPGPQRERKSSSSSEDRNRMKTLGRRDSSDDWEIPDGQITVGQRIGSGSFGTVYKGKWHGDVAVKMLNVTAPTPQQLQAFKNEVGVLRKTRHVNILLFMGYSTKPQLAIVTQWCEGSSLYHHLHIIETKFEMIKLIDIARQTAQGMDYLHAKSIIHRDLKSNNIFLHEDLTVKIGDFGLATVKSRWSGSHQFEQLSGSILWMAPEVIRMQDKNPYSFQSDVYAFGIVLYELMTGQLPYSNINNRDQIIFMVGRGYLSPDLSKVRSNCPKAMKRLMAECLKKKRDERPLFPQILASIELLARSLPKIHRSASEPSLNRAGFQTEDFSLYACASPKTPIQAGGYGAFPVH

According to patent US9216981B2, “Purinylpyridinylamino-2,4-difluorophenyl sulfonamide derivative, pharmaceutically acceptable salt thereof, preparation method thereof, and pharmaceutical composition with inhibitory activity against Raf kinase, containing same as active ingredient” (Medpacto, Inc., priority 2010, dated 2015):

Assays:
B-Raf = B-Raf (Homo sapiens (Human), UniProt P15056); experiment: B-Raf kinase activity (B-Raf/MEK1/MAPK2 cascade, MBP phosphorylation, [γ-32P]ATP); details: read-out: B-Raf Enzyme Activity, activated B-Raf, inactivated MEK1, inactivated MAPK2, 30° C., 30 minutes
A375P cell line = experiment: B-Raf cell activity inhibition (A375P growth inhibition, MTT assay); format: cell-based; details: read-out: Cell Activity (A375P), IC50, A375P human melanoma, V600E mutant of B-Raf, 72 hours

In the case of `O=S(=O)(Nc1ccc(F)c(Nc2ncccc2-c2ncnc3[nH]cnc23)c1F)c1ccc(C2OCCO2)o1`, the IC50 (B-Raf) is reported as 220 nM and the IC50 (A375P cell line) is reported as 800 nM.

The match of structure and compound is tentative.
